Strings that start with PEPTIDE1 are HELM notation: dots part the residues, brackets hold end groups and non-standard residues.
Experiment: general procedure: Fmoc solid-phase peptide synthesis; PyBOP/NMM (manual Fmoc-Cys(Trt) coupling)
Settings: conjugation step

PEPTIDE1{R.G.D.[dF].K}|PEPTIDE2{[AZA-NO2-OCH2CO].[PEG].[PEG]}$PEPTIDE1,PEPTIDE1,1:R1-5:R2|PEPTIDE1,PEPTIDE2,5:R3-3:R2$$$V2.0
conjugation yield (HCl salt): 85%

PEPTIDE1{[ac].C.R.G.D.K.G.P.D.C.[am]}|PEPTIDE2{[ac].C}|CHEM1{[Suc-AZA-NO2]}$PEPTIDE1,PEPTIDE1,2:R3-10:R3|PEPTIDE1,PEPTIDE2,6:R3-2:R2|PEPTIDE2,CHEM1,2:R3-1:R1$$$V2.0
conjugation yield (HCl salt (2)): 71%

Reference: publication PMC6686729 (Chemical Science, 2019)
